Data as given in PubChem BioAssay AID1508587 (Peter MacCallum Cancer Centre, 2020).
In all, the deposit lists about 1,600 reagents; shown is an unselected part. 623 of all reagents (39%) count as active. 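Calls are for each duplex; lactate ratios contain extreme outliers.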 The numbers tell different reagents against one gene apart. Not all columns of the deposit are shown.

- Test: 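Follow-up of vemurafenib sensitisers scored by lactate made per cell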 (follow-up of hits)
- System: human WM266.4 melanoma cells with a BRAF V600 mutation
- Reagents: single siRNA against human genes, 25 nM
- Time to read-out: 96 h
- Conditions: vemurafenib 300 nM (about IC25), given 48 h after transfection for 48 h
- Read-out: 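Medium lactate read by absorbance over DAPI-counted nuclei; ratio with versus without vemurafenib, set against non-targeting siRNA, averaged over 2 replicates; cell number also recorded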
- Reading the numbers: lactate per cell, drug vs no drug: higher = less drug-induced drop in lactate per cell; lactate per cell with vemurafenib: higher = more lactate per cell under drug; lactate per cell without drug: higher = more lactate per cell without drug
- Rule for the call: 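a duplex is active when its lactate-per-cell ratio with versus without drug falls under 0.55, i.e. 2 SD below non-targeting; a gene is confirmed if 2 or more of 4 duplexes pass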

gene	siRNA no.	lactate per cell, drug vs no drug	lactate per cell with vemurafenib	lactate per cell without drug	activity call
STARD5	1	0.74	4.18	4.1	inactive
STARD5	2	0.64	1.95	2.2	inactive
STARD5	3	0.96	1.23	0.98	inactive
STARD5	4	0.72	0.98	0.98	inactive
MTG1	1	0.36	0.61	1.22	active
MTG1	2	0.72	1.6	1.53	inactive
MTG1	3	0.56	0.63	0.76	inactive
MTG1	4	0.5	1.1	1.52	active
CANX	1	0.18	0.2	0.69	active
CANX	2	0.96	4.37	3.66	inactive
CANX	3	0.76	2.36	2.19	inactive
CANX	4	0.69	2.96	2.93	inactive
KCNK18	1	0.49	1.05	1.27	active
KCNK18	2	0.54	1.78	1.94	active
KCNK18	3	0.5	0.8	0.92	active
KCNK18	4	0.46	0.6	0.78	active
CLCN7	1	0.8	2.96	2.23	inactive
CLCN7	2	0.6	0.53	0.54	inactive
CLCN7	3	0.6	2.36	2.41	inactive
CLCN7	4	0.7	2.25	1.98	inactive
TP53RK	1	0.5	2.12	2.75	active
TP53RK	2	0.54	0.87	1.02	active
TP53RK	3	0.6	1.35	1.44	inactive
TP53RK	4	0.52	1.27	1.58	active
CCDC71L	1	0.8	1.27	1.17	inactive
CCDC71L	2	0.73	3.09	3.04	inactive
CCDC71L	3	0.26	0.32	0.88	active
CCDC71L	4	0.72	1.83	1.82	inactive
C19orf47	1	0.63	0.97	1.06	inactive
C19orf47	2	0.78	1.91	1.72	inactive
C19orf47	3	0.8	1.37	1.19	inactive
C19orf47	4	0.5	1.19	1.62	active
MVP	1	0.18	0.28	0.93	active
MVP	2	0.52	1.69	2.03	active
MVP	3	0.38	0.8	1.29	active
MVP	4	0.6	1.04	1.1	inactive

No new results follow: entries from further up.
gene	siRNA no.	lactate per cell, drug vs no drug	lactate per cell with vemurafenib	lactate per cell without drug	activity call
TP53RK	1	0.5	2.12	2.75	active
TP53RK	2	0.54	0.87	1.02	active
TP53RK	3	0.6	1.35	1.44	inactive
TP53RK	4	0.52	1.27	1.58	active
CCDC71L	1	0.8	1.27	1.17	inactive
CCDC71L	2	0.73	3.09	3.04	inactive
